The target of test [1] is GST-fused carboxyl-terminal SH2 domain of p85 (PI3-K). Nature of the test: pull-down; 5 µg GST-fusion protein on Sepharose beads incubated 2 h at 4 °C with 200 µg lysate of osteoclasts treated with TNF-α and bone particles for 3-4 h; washed with lysis buffer and cold PBS; immunoblot with LPL and TRAF-6 antibodies; only the target purified. On the technique in general: In western blotting, separated proteins are transferred to a membrane and probed.

Test [2] deals with GST-fused amino-terminal SH2 domain of p85 (PI3-K). Described as above.

2 molecules from article PMC8464874 can be followed below.

Results are given in words; binding and its absence hold for the method and conditions named. In cells and extracts the contact can be indirect.

B1: TRAF-6 (protein, UniProt P70196 1-530)
chain: MSLLNCENSCGSSQSSSDCCAAMAASCSAAVKDDSVSGSASTGNLSSSFMEEIQGYDVEFDPPLESKYECPICLMALREAVQTPCGHRFCKACIIKSIRDAGHKCPVDNEILLENQLFPDNFAKREILSLTVKCPNKGCLQKMELRHLEDHQVHCEFALVNCPQCQRPFQKCQVNTHIIEDCPRRQVSCVNCAVSMAYEEKEIHDQSCPLANIICEYCGTILIREQMPNHYDLDCPTAPIPCTFSVFGCHEKMQRNHLARHLQENTQLHMRLLAQAVHNVNLALRPCDAASPSRGCRPEDPNYEETIKQLESRLVRQDHQIRELTAKMETQSMYVGELKRTIRTLEDKVAEMEAQQCNGIYIWKIGNFGMHLKSQEEERPVVIHSPGFYTGRPGYKLCMRLHLQLPTAQRCANYISLFVHTMQGEYDSHLPWPFQGTIRLTILDQSEALIRQNHEEVMDAKPELLAFQRPTIPRNPKGFGYVTFMHLEALRQGTFIKDDTLLVRCEVSTRFDMGGLRKEGFQPRSTDAGV
As for B1, the binding entry in test [1] and in test [2] was “no binding” throughout.

B2: L-plastin (LPL) (protein, UniProt Q61233 1-627)
chain: MARGSVSDEEMMELREAFAKVDTDGNGYISCNELNDLFKAACLPLPGYRVREITENLMATGDLDQDGKISFDEFIKVFHGLKSTEVAKTFRKAINKKEGICAIGGTSEQSSVGTQHSYSEEEKYAFVNWINKALENDPDCRHVIPMNPNTDDLFNAVGDGIVLCKMINLSVPDTIDERTINKKKLTPFTIQENLNLALNSASAIGCHVVNIGAEDLKEGKPYLVLGLLWQVIKIGLFADIELSRNEALIALLREGESLEDLMKLSPEELLLRWANYHLENAGCTKITNFSTDIKDSKAYYHLLEQVAPKGDEEGIPAVVIDMSGLREKDDIQRAECMLQQAERLGCRQFVTATDVVRGNPKLNLAFIANLFNKYPALHKPENQDIDWGALEGETREERTFRNWMNSLGVNPRVNHLYSDLSDALVIFQLYEKIKVPVDWNRVNKPPYPKLGGNMKKLENCNYAVDLGKNQAKFSLVGIAGQDLNEGNRTLTLALVWQLMRRYTLNILEDIGGGQKVNDDIIVNWVNTTLKEAQKSSSIASFKDPKISTSLPVLDLIDAIQPGSINYDLLKTENLDDEEKLNNAKYAISMARKIGARVYALPEDLVEVNPKMVMTVFACLMGKGMKRV
Consider B2, for which the binding entry in test [1] and in test [2] was “no binding” throughout.
